# Source: PubChem BioAssay AID2685 (National Center for Advancing Translational Sciences (NCATS), 2010)
# The list shows a part of the results. The main result of the screen is listed elsewhere. These columns were measured beside it and carry no call. Most of these compounds were active or inconclusive in the main read-out, so they are no random draw. Potencies come from curve fits of mixed quality, noted in brackets.
# Test: qHTS Assay for Lipid Storage Modulators in Drosophila S3 Cells;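 as to cell number change: cells counted by Cell Tracker Red CMTPX staining in the red channel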
# Settings: BODIPY lipid droplet fluorescence, 18-24 h; for cell number change: measured here: cell count max response, cells fed with added oleic acid
# Outline: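 Laser-scanning cytometry quantifies lipid droplet accumulation (500–530 nm total intensity; droplet/cell object ratio) in oleic acid-fed (400 uM added) Drosophila S3 cells treated with a concentration series. 20 uM Triacsin C defined 100% inhibition.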
# [1] = measured here: cell number channel AC50, cells fed with added oleic acid
# [2] = measured here: lipid fluorescence (Fed channel) AC50, cells fed with added oleic acid
Compound,AC50 [1],cell number change [%],AC50 [2]
CCOC(=O)C1CCCN(CC(=O)Nc2ccc(C(=O)Nc3ccccc3OC)cc2)C1 (configuration not stated),"1.64 µM [rising, partial curve]",,
O=C(Nc1cccnc1)c1ccc(-c2cc(Cl)ccc2Cl)o1,,23,
Cn1c2c(c(=O)n(C)c1=O)C(NS(=O)(=O)c1ccc(Cl)cc1)(C(F)(F)F)C(=O)N2 (configuration not stated),,-18.1,"23.1 µM [falling, partial curve]"
O=C1CC(c2cc(Br)ccc2F)c2cc3c(cc2N1)CCC3 (configuration not stated),"4.11 µM [falling, single point]",-16.5,"0.164 µM [falling, partial curve, poor fit]"
CCc1nc(SCc2cc(Cl)ccc2OC)n[nH]1,"3.66 µM [rising, single point]",,
COc1ccc(C(=O)C/C(=C\C(=O)c2ccc(C)cc2)c2ccccc2)cc1,,-28.8,"8.2 µM [falling, partial curve]"
CCOCCSc1nc2c(c(-c3cccs3)c1C#N)CC/C2=C/c1cccs1,,27.7,"0.092 µM [falling, full curve]"
O=C(Nc1ccccc1Cc1ccccc1)c1oc2ccccc2c1COc1ccccc1,,-8.98,
CC1(c2ccccc2)NC(=O)N(NC(=O)COC(=O)c2cc(Br)ccc2O)C1=O (configuration not stated),,22,
COc1ccc(CCNC(=O)C(=O)N/N=C/c2cccs2)cc1OC,,20.4,
Cc1cccc(NC(=O)CN(CC2CCCO2)C(=O)c2ccc(S(C)(=O)=O)cc2)c1C (configuration not stated),,,"1.3 µM [falling, full curve, poor fit]"
COc1ccccc1OCCSc1nc(C)c(Cc2ccccc2)c(=O)[nH]1,,-16.9,
O=C(c1ccc(Cn2cc([N+](=O)[O-])cn2)o1)N1CCCC1,,-16.3,"29.1 µM [rising, single point]"
COc1ccc(N(CC(=O)NN=C2CCCC2)S(=O)(=O)c2ccccc2)cc1Cl,,11,"0.58 µM [rising, partial curve, poor fit]"
CCOC(=O)C1CSC(CC(=O)Nc2ccc(Cl)cc2)C(=O)N1 (configuration not stated),,-7.38,"2.06 µM [falling, partial curve]"
COc1ccc2[nH]c3c(c2c1)CCN1C(=O)N([C@@H](C)C(=O)NCc2ccc(C)cc2)C(=O)[C@]31C,,-19.7,"0.184 µM [falling, full curve, poor fit]"
CCn1c(SCC(=O)Nc2ccc(NC(C)=O)cc2)nc2c1c(=O)n(C)c(=O)n2C,,3.85,
Cc1sc2ncn(Cc3ccccc3F)c(=O)c2c1C,,7.25,"29.1 µM [rising, single point]"
COc1ccc2c(c1)Cc1sc(NC(=O)c3cccs3)nc1-2,,-24.1,
CC(=O)Nc1ccc(NC(=O)C2CC(=O)N(Cc3ccco3)C2)cc1 (configuration not stated),,-12.5,
Cc1ccccc1CN(c1ccc(C(=O)N/N=C/c2ccc(OCC(N)=O)cc2)cc1)S(C)(=O)=O,"2.31 µM [falling, partial curve]",10.8,"4.11 µM [falling, single point]"
Clc1ccc(Sc2cc(Cl)c(-c3ccccc3)nn2)cc1,"2.31 µM [falling, partial curve, poor fit]",-16.3,

# An excerpt of these results, with bars between the fields.
Compound | AC50 [1] | cell number change [%] | AC50 [2]
O=C1CC(c2cc(Br)ccc2F)c2cc3c(cc2N1)CCC3 (configuration not stated) | 4.11 µM [falling, single point] | -16.5 | 0.164 µM [falling, partial curve, poor fit]
CCc1nc(SCc2cc(Cl)ccc2OC)n[nH]1 | 3.66 µM [rising, single point] |  | 
COc1ccc(C(=O)C/C(=C\C(=O)c2ccc(C)cc2)c2ccccc2)cc1 |  | -28.8 | 8.2 µM [falling, partial curve]
CCOCCSc1nc2c(c(-c3cccs3)c1C#N)CC/C2=C/c1cccs1 |  | 27.7 | 0.092 µM [falling, full curve]

# The results go on:

Compound,AC50 [1],cell number change [%],AC50 [2]
Cc1ccccc1NCC(=O)N=Nc1c(O)[nH]c2ccc([N+](=O)[O-])cc12,"14.6 µM [falling, partial curve]",-35.8,"16.4 µM [falling, partial curve]"
Cc1cc(Br)cc(C)c1NC(=S)NC(=O)CC(C)C,,9.59,"29.1 µM [rising, single point]"
CCCC(=O)C1C(=O)CC(CC(C)SCC)CC1=O (configuration not stated),,-1.16,"6.51 µM [rising, single point]"
COc1ccc(NS(=O)(=O)c2cccc(C(=O)N3CCCC(C)C3)c2)cc1 (configuration not stated),,14.3,"1.46 µM [falling, partial curve]"
Cn1nnnc1SCC(=O)NCCCc1ccccc1,,-2.17,
Cc1ccc(NC(=O)OCCNC(=O)c2ccncc2)cc1,"0.58 µM [rising, single point]",,
CC1CN(CCOc2ccc(Cl)c(Cl)c2)CC(C)O1 (configuration not stated),"10.3 µM [rising, partial curve]",32.8,
CCOC(=O)CNC(=O)COc1coc(CN2CCN(c3ccccc3F)CC2)cc1=O,,20.7,
Cc1c(N(C)C(=O)c2ccccc2F)c(=O)n(-c2ccccc2)n1C,"2.59 µM [falling, full curve, poor fit]",-27.6,"0.651 µM [falling, full curve]"
Cc1[nH]c2ccccc2c1CCNC(=O)c1ccc2nccnc2c1,,-25.9,"20.6 µM [falling, single point]"
O=C(O)CSCC(=O)Nc1cccc2ccccc12,,34.9,"0.0651 µM [falling, full curve, poor fit]"
Cc1cccc(C(=O)N[C@H](C(=O)Nc2nc(C)cs2)C(C)C)c1,"11.6 µM [rising, partial curve]",42.7,
O=C(CCCN1C(=O)CSc2ncccc21)N1CCN(c2cccc(C(F)(F)F)c2)CC1,,-49.5,"29.1 µM [falling, single point]"
COc1ccccc1CNC(=O)CN(C)CC(=O)Nc1cccc(F)c1,,-3.27,"0.116 µM [rising, full curve, poor fit]"
CCOC(=O)CNC(=O)C1c2ccccc2C(=O)N(c2ccc(OC)cc2)C1c1ccc(OC)cc1 (configuration not stated),"29.1 µM [rising, single point]",77.5,
Nn1c(SCC(=O)Nc2ccccc2C(F)(F)F)nncc1=O,,28.3,
COCCCNCCOc1cc(C(C)C)ccc1C,,-10.1,"6.51 µM [falling, full curve]"
Cc1c(C(c2ccc(F)cc2)c2c(C)n(C)n(-c3ccccc3)c2=O)c(=O)n(-c2ccccc2)n1C,,-11,
O=C(CSc1ccc(-c2ccccc2)nn1)c1cccs1,"29.1 µM [rising, single point]",110,"0.0164 µM [rising, full curve, poor fit]"
Cc1ccc(-n2c(C)cc3c2CC(C)(C)CC3=O)cc1C,"0.0731 µM [rising, full curve]",18,
Cc1ccc(Cl)cc1NC(=O)C(Cc1ccccc1)N1C(=O)C2C3CCC(C3)C2C1=O (configuration not stated),,4.69,"0.291 µM [rising, single point]"
CCc1ccc(NC(=O)C(C)OC(=O)CC(NC(C)=O)c2ccccc2)cc1 (configuration not stated),,3.97,"5.17 µM [rising, partial curve, poor fit]"

Compound,AC50 [1],cell number change [%],AC50 [2]
O=C(COc1cccc2ccccc12)Nc1nc2ccccc2[nH]1,"0.411 µM [rising, full curve, poor fit]",32.3,"0.58 µM [rising, full curve]"
COC(=O)c1cc(S(=O)(=O)NCCc2ccc(Cl)cc2)c[nH]1,,-3.29,"6.51 µM [rising, partial curve, poor fit]"
CC1C(c2ccccc2)N(C)C(c2ccccc2)CC1(O)c1ccccc1 (configuration not stated),,11.6,"0.461 µM [falling, single point]"
CCOc1cccc(=O)c2c(C)n(CC3CCCO3)c(C)c12 (configuration not stated),,-8.31,
Cc1cc(C)c2cc(CN(CCO)Cc3nnnn3Cc3ccc(F)cc3)c(=O)[nH]c2c1,,1.65,"2.91 µM [rising, full curve]"
COc1ccc(OC)c(CCNC(=O)C2CCN(c3nnc(-n4cccc4)s3)CC2)c1,,,"1.3 µM [rising, full curve, poor fit]"
COc1ccc(NS(=O)(=O)c2ccc3oc(SC)nc3c2)cc1,,-22.2,
CC(=O)c1cccc(NC(=S)NC(=O)c2cccc(C)c2)c1,,15.2,
COC(=O)c1[nH]c2ccccc2c1NC(=O)CN1CCN(C(=O)c2ccco2)CC1,,-7.92,"4.61 µM [rising, single point]"
O=[N+]([O-])c1cnn(-c2nc(-c3ccccc3)cc(C(F)(F)F)n2)c1,"7.31 µM [falling, single point]",-35.6,"6.51 µM [falling, single point]"
CN(Cc1nccn1C)C(=O)CC1C(=O)NCCN1Cc1ccc(F)cc1Cl (configuration not stated),,-5.94,
COc1cc([C@@H]2CC=C(C(=O)O)[C@H](c3ccccc3F)N2S(=O)(=O)c2ccc(C)cc2)cc(OC)c1OC,,21.6,"29.1 µM [rising, single point]"
COC(=O)c1nc(-c2ccc(C)cc2)oc1N(C)C,,-14.6,"0.58 µM [rising, single point]"
CCOC(=O)C1=C(C)N=c2s/c(=C/c3ccc(OCC(=O)O)cc3)c(=O)n2C1c1ccc(SC)cc1 (configuration not stated),"29.1 µM [rising, single point]",44.2,
Cc1ccc(Cn2nnc3c(=O)n(CC(=O)NCc4ccccc4)cnc32)cc1,,23.8,
Cc1cccc(C(=O)c2c[nH]cc2-c2ccccc2)c1,,20.1,"3.26 µM [rising, partial curve, poor fit]"
CCOC(=O)[C@H]1[C@H]2COc3ccccc3[C@@H]2N2C(=O)c3cc(C)ccc3NC(=O)[C@@]12C,,-15.4,"0.58 µM [rising, single point]"
COc1ccc(CNC(=O)COC(=O)c2[nH]c(C)c(C(C)=O)c2C)cc1OC,,1.3,"2.06 µM [rising, partial curve, poor fit]"
COc1cccc(OCc2cc(C(=O)N(C)C3CCOCC3)no2)c1,,6.27,
Cc1nnc(NC2=NCCCCC2)o1,,-19.8,"0.731 µM [falling, full curve, poor fit]"
